These are yes or no findings as the source states them, for the method shown. Binding seen in cells or lysates may run through a third protein. Some binding calls cover weakened binding; strength is not graded here.

Chains of the proteins cited; added tags and fusions are not shown. Residues count along the entry.
UniProt P09429, residues 90-175: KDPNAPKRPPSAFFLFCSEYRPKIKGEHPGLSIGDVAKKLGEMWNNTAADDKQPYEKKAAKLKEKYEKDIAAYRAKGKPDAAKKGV
UniProt Q63495, residues 23-402: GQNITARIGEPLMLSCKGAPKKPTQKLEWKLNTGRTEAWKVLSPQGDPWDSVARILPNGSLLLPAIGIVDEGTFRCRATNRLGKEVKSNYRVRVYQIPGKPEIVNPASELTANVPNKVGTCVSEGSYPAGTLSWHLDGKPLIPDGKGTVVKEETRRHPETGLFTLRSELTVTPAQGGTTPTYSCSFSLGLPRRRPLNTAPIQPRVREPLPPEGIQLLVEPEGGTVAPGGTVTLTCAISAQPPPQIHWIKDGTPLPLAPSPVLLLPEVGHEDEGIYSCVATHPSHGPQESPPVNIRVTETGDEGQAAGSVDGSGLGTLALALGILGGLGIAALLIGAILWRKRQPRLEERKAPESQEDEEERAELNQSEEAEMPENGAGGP

In the experiment the target is Recombinant human HMGB1 B box (residues 90–175) (human) (UniProt P09429). The experiment can be described thus: pull-down; His-tagged B box (100 μg) on a Ni-beads column, reacted with or without celastrol (equimolar or five-fold) for 1 h; 500 μg lysate of primary neurons added, 2 h at 4 °C; eluted; Western blot with antibodies against TLR4 and RAGE; only the target purified. (In general: In western blotting, separated proteins are transferred to a membrane and probed.)

As to “Receptor for advanced glycation endproducts (from UniProt Q63495 23-402)”, the binding entry is on record as “binds”.

B1: Toll-like receptor 4 (receptor, UniProt Q9QX05 26-835)
chain: NPCIEVLPNITYQCMDQNLSKIPHDIPYSTKNLDLSFNPLKILRSYSFTNFSQLQWLDLSRCEIETIEDKAWHGLNQLSTLVLTGNPIKSFSPGSFSGLTNLENLVAVETKMTSLEGFHIGQLISLKKLNVAHNLIHSFKLPEYFSNLTNLEHVDLSYNYIQTISVKDLQFLRENPQVNLSLDLSLNPIDSIQAQAFQGIRLHELTLRSNFNSSNVLKMCLQNMTGLHVHRLILGEFKNERNLESFDRSVMEGLCNVSIDEFRLTYINHFSDDIYNLNCLANISAMSFTGVHIKHIADVPRHFKWQSLSIIRCHLKPFPKLSLPFLKSWTLTTNREDISFGQLALPSLRYLDLSRNAMSFRGCCSYSDFGTNNLKYLDLSFNGVILMSANFMGLEELEYLDFQHSTLKKVTEFSVFLSLEKLLYLDISYTNTKIDFDGIFLGLISLNTLKMAGNSFKDNTLSNVFTNTTNLTFLDLSKCQLEQISRGVFDTLYRLQLLNMSHNNLLFLDPSHYKQLYSLRTLDCSFNRIETSKGILQHFPKSLAVFNLTNNSVACICEYQNFLQWVKDQKMFLVNVEQMKCASPIDMKASLVLDFTNSTCYIYKTIISVSVVSVLVVATVAFLIYHFYFHLILIAGCKKYSRGESIYDAFVIYSSQNEDWVRNELVKNLEEGVPRFQLCLHYRDFIPGVAIAANIIQEGFHKSRKVIVVVSRHFIQSRWCIFEYEIAQTWQFLSSRSGIIFIVLEKVEKSLLRQQVELYRLLSRNTYLEWEDNALGRHIFWRRLKKALLDGKALNPDETSEEEQEATTLT
Regarding B1, the binding entry is “binds”.

Values taken from publication PMC8353826, “Celastrol exerts a neuroprotective effect by directly binding to HMGB1 protein in cerebral ischemia–reperfusion” (Journal of Neuroinflammation, 2021).
